These are yes or no findings as the source states them, for the method shown. For some assays here: Binding seen in cells or lysates may run through a third protein. Some entries that bind do so weakly or less than the wild type. For some assays here: Sequences can lack the tags named with a protein. Blank lines part the entries; values can stand above or below the substance they belong to.
Legend:
Arc-mCherry (mouse) = biological target: T1, Arc-mCherry (mouse) (UniProt Q9WV31); assay: cross-correlation raster imaging correlation spectroscopy (ccRICS); live co-transfected SH-SY5Y cells in depolarizing buffer (100 mM KCl), 15 min incubation
T1 sequence: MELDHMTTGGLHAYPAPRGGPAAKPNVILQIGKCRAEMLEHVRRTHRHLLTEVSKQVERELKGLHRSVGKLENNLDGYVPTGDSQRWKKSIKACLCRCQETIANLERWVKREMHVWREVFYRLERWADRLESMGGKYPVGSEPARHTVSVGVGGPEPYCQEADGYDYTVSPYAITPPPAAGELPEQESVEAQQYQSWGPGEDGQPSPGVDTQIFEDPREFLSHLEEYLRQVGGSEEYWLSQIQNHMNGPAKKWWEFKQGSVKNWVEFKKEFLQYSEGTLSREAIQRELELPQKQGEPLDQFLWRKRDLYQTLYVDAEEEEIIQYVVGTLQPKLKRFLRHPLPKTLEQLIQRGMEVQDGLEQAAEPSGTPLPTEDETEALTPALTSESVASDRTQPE

Chains of the proteins cited; added tags and fusions are not shown. Lines headed by an entry give the natural chain unless they say otherwise; changes in a name come on top.
UniProt P62993: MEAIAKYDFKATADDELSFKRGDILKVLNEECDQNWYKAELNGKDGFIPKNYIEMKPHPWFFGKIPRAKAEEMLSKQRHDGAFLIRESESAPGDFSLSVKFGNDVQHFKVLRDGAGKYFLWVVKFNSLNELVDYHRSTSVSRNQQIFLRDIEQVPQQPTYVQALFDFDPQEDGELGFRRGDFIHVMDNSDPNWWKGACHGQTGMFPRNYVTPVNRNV
UniProt Q9NRD5: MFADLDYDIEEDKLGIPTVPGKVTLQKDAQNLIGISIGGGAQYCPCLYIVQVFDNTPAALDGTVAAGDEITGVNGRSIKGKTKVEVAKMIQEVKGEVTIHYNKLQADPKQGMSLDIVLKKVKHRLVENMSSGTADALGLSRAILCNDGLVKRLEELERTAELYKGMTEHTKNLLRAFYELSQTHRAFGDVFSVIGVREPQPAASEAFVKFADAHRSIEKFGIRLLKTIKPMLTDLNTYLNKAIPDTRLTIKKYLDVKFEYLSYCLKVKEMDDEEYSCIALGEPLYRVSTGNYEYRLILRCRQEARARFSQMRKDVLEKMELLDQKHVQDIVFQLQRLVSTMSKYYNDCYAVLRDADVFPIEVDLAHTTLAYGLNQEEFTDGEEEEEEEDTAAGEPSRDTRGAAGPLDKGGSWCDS
UniProt Q62083: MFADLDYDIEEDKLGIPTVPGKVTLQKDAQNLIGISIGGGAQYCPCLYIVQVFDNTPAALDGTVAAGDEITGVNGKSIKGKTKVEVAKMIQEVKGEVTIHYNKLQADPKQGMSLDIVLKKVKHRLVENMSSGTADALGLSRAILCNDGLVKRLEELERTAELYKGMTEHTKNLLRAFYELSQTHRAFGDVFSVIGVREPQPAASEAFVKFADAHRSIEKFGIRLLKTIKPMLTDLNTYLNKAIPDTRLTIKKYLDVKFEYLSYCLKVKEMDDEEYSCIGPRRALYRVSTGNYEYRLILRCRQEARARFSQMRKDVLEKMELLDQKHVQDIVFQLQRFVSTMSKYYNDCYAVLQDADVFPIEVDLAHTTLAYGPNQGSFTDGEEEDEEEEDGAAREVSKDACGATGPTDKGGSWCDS

GST-Arc (mouse) [1] = biological target: T2, GST-Arc (mouse) (UniProt Q9WV31); assay: pull-down; lysate of HEK293 cells transfected with FLAG-PICK1 or FLAG-PICK1B incubated 1 h with GST-Arc or GST coupled to glutathione resin; eluted with 50 mM glutathione; immunoblot; only the target purified
T2 sequence: T1 sequence

GST-Arc (mouse) [2] = biological target: T2, GST-Arc (mouse); assay: pull-down; whole mouse brain lysate incubated with GST or GST-Arc, then bound to glutathione resin; Western blot; only the target purified
GST-Arc (mouse) [3] = biological target: T2, GST-Arc (mouse); assay: pull-down; mouse brain synaptosome lysate with GST-Arc, GST or GST-Grb2 (10 µM) on glutathione resin; Western blot for PICK1; only the target purified
GST-Grb2 = GST-Grb2 (UniProt P62993); assay: as above

binding (Arc-mCherry (mouse)): binds
Substance: EGFP-PICK1-BAR (from UniProt Q9NRD5 140-415) (domain or fragment)

binding (GST-Arc (mouse) [1]): binds
Substance: FLAG-PICK1 (full length) (from UniProt Q9NRD5 1-415)

binding (GST-Arc (mouse) [2]): binds | binding (GST-Arc (mouse) [3]): binds | binding (GST-Grb2): no binding (tested: 10 µM)
Substance: PICK1 (endogenous, mouse brain) (from UniProt Q62083 1-416)

Reference: article PMC6168463, “Arc/Arg3.1 has an activity-regulated interaction with PICK1 that results in altered spatial dynamics” (Scientific Reports, 2018)
